The experiment is described as follows: qHTS Assay to Find Inhibitors of Chronic Active B-Cell Receptor Signaling. The following applies: ABC-DLBCL IkBa-CBG/CBR reporter, luminescence ratio (green luciferase fused to IkBa over red control in TMD8 lymphoma cells), 4 h. An outline of the steps: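 Cell line TMD8 (human ABC DLBCL), stably expressing tet-inducible CBG68-IkBa fusion and CBR; IMDM/0.5% FBS; cpd up to 46 uM; dox induction, 4 h, 37C/5% CO2; dual luminescence; green/red ratio; MG132 control.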

Where [1] appears, read: measured here: CBR red luminescence, cell number.
The mark [2] stands for this setting: measured here: IkBa-CBG green luminescence.

The other results are listed elsewhere or left out. The main result of the screen is listed elsewhere. These columns were measured beside it and carry no call. Most of these compounds were active or inconclusive in the main read-out, so they are no random draw. Words in brackets tell the shape of the fitted curve; partial curves, single points and poor fits give uncertain potencies.

As to `COc1ccc(/C=C/C(=O)NCC2COc3ccccc3O2)cc1OC` (centres undefined), the AC50 under setting [1] was 7.94 µM [falling, partial curve, poor fit].

As to `O=C(Nc1ccc2c(c1)OCO2)c1cc2nc(C3CC3)cc(C(F)(F)F)n2n1`, the concentration at half-maximal activity (AC50) under setting [1] was 0.112 µM [rising, full curve, poor fit]. The same measure, in the same setting: the result for `Cc1cc(C=O)c(C)n1-c1ccc(NC2CCCC2)c([N+](=O)[O-])c1` reads 1.41 µM [rising, full curve, poor fit]. In the case of `CC1CCN(c2ccc(-c3cccc(NC(=O)c4ccco4)c3)nn2)CC1`, the AC50 under setting [1] was 7.31 µM [falling, partial curve]. Consider `c1ccc(C2=NNC(=NCc3ccc4c(c3)OCO4)SC2)cc1`, for which the AC50 under setting [1] is 8.2 µM [falling, partial curve, poor fit]. For the compound `COCCN1C(=O)C(CC(=O)Nc2ccc(C(=O)O)cc2)SC1=Nc1ccccc1` (centres undefined), the AC50 under setting [1] is 0.0058 µM [falling, full curve, poor fit].

Regarding `COc1ccc2c(c1)CC/C(=C/c1cc(OC)c(OC)c(OC)c1)C2=O`, the AC50 under setting [1] is 17.8 µM [falling, partial curve, poor fit]. As for `S=C(Nc1cccnc1)NC1CC2CCC1C2` (centres undefined), the AC50 under setting [1] is 28.2 µM [falling, single point].

As to `O=C(NC1CSCC1OC(=O)c1ccccc1)c1ccccc1` (centres undefined), under setting [1], the concentration at half-maximal activity (AC50) was 35.5 µM [falling, single point]. In the case of `O=[N+]([O-])c1ccc(N2CCN(c3ccccn3)CC2)c(Cl)c1`, under setting [1], the AC50 was 2 µM [rising, full curve, poor fit]. Regarding `CC(=O)c1sc2nsc(SCCN3CCOCC3)c2c1N`, the concentration at half-maximal activity (AC50) under setting [1] is 5.62 µM [rising, full curve]. With `CCOC(=O)c1cc(-c2ccccc2)n(CCCC(=O)Nc2ccc(C(C)C)cc2)c1C`, under setting [1], the AC50 is 5.62 µM [rising, single point]. With `Cc1c(C)n2c(SCC(=O)N3CCCCC3)nnc2[nH]c1=O`, under setting [1], the AC50 is 3.66 µM [rising, partial curve, poor fit]. Turning to `Cc1ccc(CSc2nnc(SCC(=O)N/N=C/c3ccc(C(=O)O)cc3)s2)cc1`, the AC50 under setting [1] is 6.31 µM [falling, single point]. On to `Fc1ccccc1N=C1NN=C(c2ccccc2)CS1`, for which the AC50 under setting [1] was 11.2 µM [falling, partial curve].

Turning to `COC(=O)COc1ccc(S(=O)(=O)Nc2ccc(NC(C)=O)cc2)cc1C`, under setting [1], the AC50 is 29.1 µM [rising, single point]. Consider `O=C(CCc1ccccc1F)N1CCN(c2ccccc2)CC1`, for which the AC50 under setting [1] was 14.1 µM [rising, partial curve, poor fit]. As to `O=S(=O)(/C=C/c1ccccc1)N1CCc2ccccc2C1`, the AC50 under setting [1] was 35.5 µM [falling, single point].

On to `CCCCNC(=O)N1CCOCCOCCN(C(=O)NCCCC)CCOCCOCC1`, for which the AC50 by setting is: under setting [1], 6.51 µM [falling, single point]; under setting [2], 4.61 µM [rising, partial curve, poor fit]. Consider `Cc1cccc(-c2noc(-c3ccc4c(c3)OCO4)n2)c1`, for which the AC50 by setting is: under setting [1], 17.8 µM [rising, single point]; under setting [2], 25.1 µM [falling, single point]. `O=C(OCCN1CCCC1=O)c1cc(F)c(F)c(F)c1F`: the AC50 under setting [1] was 29.1 µM [falling, single point].

`CC(=O)Nc1cccc(NC(=O)c2ccc(COc3ccccc3)cc2)c1`: the AC50 under setting [1] is 0.316 µM [falling, full curve, poor fit].

As to `O=C(NCc1ccc2c(c1)OCO2)Nc1ccc2nsnc2c1`, the AC50 under setting [1] was 3.16 µM [falling, full curve, poor fit]. With `O=C(O)c1ccc(NC(=O)c2cn(-c3ccccc3)nc2-c2ccc(Cl)cc2)cc1`, the concentration at half-maximal activity (AC50) under setting [1] is 11.2 µM [falling, partial curve, poor fit]. Turning to `Nc1nc(NCCc2ccccc2)nc(NCCO)c1[N+](=O)[O-]`, the AC50 under setting [1] was 14.1 µM [rising, partial curve]. For the compound `Cn1c(Cn2nnc3ccccc32)nnc1SCC(=O)N1c2ccccc2Sc2ccccc21`, the AC50 under setting [1] was 35.5 µM [falling, single point]. `CCSc1nnc2ccc(-c3ccc(OC)c(OC)c3)nn12`: the AC50 under setting [2] was 3.55 µM [falling, partial curve].

Turning to `O=S(=O)(c1cccc2cccnc12)N1CCOCC1`, the AC50 under setting [1] was 0.58 µM [falling, full curve, poor fit]. `C=CCCC(=O)Nc1nc(C)c(-c2csc(Nc3ccccc3OC)n2)s1`: the half-maximal activity concentration (AC50) under setting [1] is 35.5 µM [falling, single point]. Take `COc1cc(/C=N\NC(=O)c2ccc(C)nc2)ccc1OC(=O)c1ccco1`: under setting [1], the AC50 is 9.2 µM [falling, partial curve, poor fit]. As for `CCOC(=O)C1CCN(C(=O)COC(=O)c2oc3ccccc3c2C)CC1`, under setting [1], the AC50 was 3.26 µM [rising, partial curve, poor fit].

As for `O=C(Nc1cccc([N+](=O)[O-])c1)c1cc(S(=O)(=O)Nc2ccccn2)ccc1Cl`, under setting [1], the AC50 was 11.2 µM [rising, single point]. Still for that read-out and setting: the result for `O=C(O)CCCCCN1C(=O)/C(=C\c2ccncc2)SC1=S` reads 0.82 µM [falling, full curve]; that for `O=C(NCc1ccco1)c1cccc(-c2nnc(-c3ccccc3)o2)c1`, 6.51 µM [falling, partial curve].

Consider `NC(=S)N=Nc1c(O)n(CCCl)c2ccccc12`, for which the AC50 was 15.8 µM [falling, single point] under setting [1] and 12.6 µM [falling, partial curve] under setting [2].

For the compound `CCOC(=O)N1CCC(N2C(=O)c3ccccc3C2Nc2cc(Cl)c(OC)cc2OC)CC1` (centres undefined), under setting [1], the AC50 is 3.66 µM [rising, single point]. Same read-out and setting: the result for `O=C(NNc1c(Cl)cc(Cl)cc1Cl)c1cccc([N+](=O)[O-])c1` reads 16.4 µM [rising, partial curve, poor fit].

Turning to `CCCCCNC(=O)c1cc(S(=O)(=O)N2CCCC2)ccc1F`, under setting [1], the AC50 is 25.9 µM [rising, single point]. For `COc1cccc(CN2C(=O)C(C)N(C(=O)c3c(F)cccc3F)c3ccccc32)c1` (centres undefined), the AC50 under setting [1] was 12.6 µM [falling, partial curve]. With `O=C(O)COc1ccccc1C1C2C(=O)N(c3ccccc3)C(=O)C2ON1c1ccccc1` (centres undefined), the AC50 under setting [1] is 2.24 µM [falling, partial curve, poor fit]. On the same count and under the same terms, the result for `CC(C)Cn1cc(C(=O)NCCCN2CCCC2=O)c2c3ccccc3n(C)c2c1=O` reads 6.51 µM [rising, single point]; that for `O=C(COC(=O)c1ccccc1)c1ccc(Br)cc1`, 35.5 µM [falling, single point]; that for `Cc1nc2nc(-c3ccco3)[nH]n2c(=O)c1C`, 1.64 µM [falling, partial curve, poor fit]. On to `CCn1cc(Br)c(C(=O)Nc2ccc(Cl)cc2Cl)n1`, for which the concentration at half-maximal activity (AC50) under setting [1] was 3.66 µM [rising, full curve, poor fit]. In the case of `CC(SCc1ccccc1)C(=O)Nc1ccc(F)cc1` (centres undefined), the AC50 under setting [1] was 17.8 µM [falling, partial curve, poor fit].

Take `COC(=O)COc1ccc(S(=O)(=O)Nc2ccccc2C(=O)OC)cc1`: under setting [1], the AC50 was 6.51 µM [rising, single point]. For `CCc1cccc2c1NC1(CCCC1)CC2C` (centres undefined), the AC50 under setting [1] was 12.6 µM [falling, partial curve, poor fit]. On to `O/C(=C\c1ccc2ccccc2n1)c1ccncc1`, for which the AC50 under setting [1] was 23.1 µM [falling, single point]. Take `C=CCNC(=O)C(=O)NN=C1CCN(C)CC1`: under setting [1], the half-maximal activity concentration (AC50) was 16.4 µM [rising, partial curve, poor fit]. In the case of `O=C(Nc1ccc2c(c1)OCCO2)c1cccc(Br)c1`, the AC50 under setting [1] is 22.4 µM [falling, single point].

`COc1ccc(-n2ncc3c(NCc4ccc5c(c4)OCO5)ncnc32)cc1`: the AC50 under setting [1] was 3.66 µM [falling, partial curve, poor fit].

As for `CCc1ccccc1NC(=O)CNC(=O)c1n[nH]c(=O)c2ccccc12`, the AC50 under setting [1] is 16.4 µM [falling, partial curve, poor fit]. Turning to `C=CCn1c(SCC(=O)NCCCC)nc2scc(-c3ccco3)c2c1=O`, the AC50 by setting is: under setting [1], 18.4 µM [falling, single point]; under setting [2], 23.1 µM [rising, single point]. On to `CN(C)c1ccc(Nc2nc(-c3cccnc3)cs2)cc1`, for which the AC50 under setting [1] is 0.355 µM [rising, partial curve, poor fit].

Take `CN(C)S(=O)(=O)c1ccc(Cl)c(C(=O)Nc2nc3ccccc3[nH]2)c1`: under setting [1], the AC50 was 15.8 µM [falling, single point].

Consider `CCc1nnc(NC(=O)c2ccc(OC)cc2)s1`, for which, under setting [1], the AC50 is 11.2 µM [falling, partial curve, poor fit].

In the case of `CC1=NN(C(=O)CSCc2ccccc2)C(O)(c2ccc(Cl)cc2)C1` (centres undefined), the AC50 under setting [1] is 15.8 µM [falling, partial curve, poor fit]. For the compound `COc1cc(/C=C/C(=O)OCC(=O)NC(=O)NC(C)(C)C)ccc1O`, the AC50 under setting [1] is 11.2 µM [falling, single point]. Turning to `CCC(CCC(=O)Nc1cccc([N+](=O)[O-])c1)C(=O)O` (centres undefined), the AC50 under setting [1] was 0.355 µM [rising, full curve, poor fit]. Take `CC(C)(C)NC(=O)C(c1cccs1)N(Cc1ccc(F)cc1)C(=O)c1csnn1` (centres undefined): the AC50 under setting [1] was 7.08 µM [falling, full curve]. Same read-out and setting: the value for `N#Cc1ccccc1/C=N/Nc1nc(-c2ccccc2)c2cc(Br)ccc2n1` was 6.31 µM [falling, partial curve, poor fit]. As for `COc1ccc(C(=O)Nc2ccccc2C(=O)N/N=C/c2ccccc2OC)cc1`, the AC50 under setting [1] is 5.62 µM [falling, partial curve].

`CN1Cc2c(N3CCOCC3)nc(SCc3ccccc3)c(C#N)c2CC1(C)C`: under setting [1], the AC50 is 35.5 µM [falling, single point]. Consider `CC(=O)Nc1cccc(NC(=O)CN2c3cccc4cccc(c34)S2(=O)=O)c1`, for which the AC50 was 20.6 µM [rising, partial curve, poor fit] under setting [1] and 16.4 µM [falling, single point] under setting [2].

For the origin of these results see PubChem BioAssay AID493014 (National Center for Advancing Translational Sciences (NCATS), 2011).
